Measurements: publication doi:10.1101/2021.10.27.466115

Each sequence was assayed against GST-Rib-PSQ DNA-binding domain (UniProt Q7KF43) (assay: EMSA).

Row | Sequence | binding result
1 | TTCAACTTCCTGTCACGCTGTGTGTGTGTTCTTTCTTTCCTTTGATTCTG (double strand) [RpS27A] | binds
2 | ACTGCCATTTCCTTTCTTTTTCGTTCCACGTTTCCGGTGAGTGCATGTGC (double strand) [RpL17] | binds
3 | ACACAACCACCCTGGTCACACGGCATCCGGCGGGGGCGGGCGGGGCCGGC (double strand) [RpS17*] | binds
4 | CGCGGCCACACTATCCTTTCCTTCTTTTCTTACAAGTTTCCGGTGAGTGC (double strand) [RpL11] | binds
5 | ACACAACCACCCTGGTCACACGGCATCCTTCTTTTTCTTTCGTTTCCGGC (double strand) [RpS17] | binds
6 | GGCAGCCACATTAATTCGGCCTTCTTTTCTTTTCCCGTTTCCGGTGAGTG (double strand) [RpS18] | binds
7 | ATCCCTTCCGTTTCCCTTTCTTTTCGTCTTCACGTTTCCGGTGAGTGCGT (double strand) [RpS10b] | binds
8 | TTCCGGCTGTCAAATTTTTCTTTCTTTCCTAGCCACGACGAGGTCGACAG (double strand) [RpL19] | binds
9 | AACGTGTCTCGCGCGGGCACACTGGCCTCTTTCTTTTCTGCGCACCACGT (double strand) [RpS3] | binds
10 | AACTGCCACTTCCTTTCTTTTTCGTTCCACGTTTCCGGTGAGTGCATGTG (double strand) [RpL7A] | binds
11 | CCCTGGTCACACCGCTCTAGACATAACCTTCCTTTTCCAATAATTTTTGT (double strand) [RpL6] | binds

For at least one entry, the source does not settle the construct or the ends of the probe.
